# Experimental data taken from PubChem BioAssay AID504467 (National Center for Advancing Translational Sciences (NCATS), 2011).
# The whole screen tested about 330,000 compounds, of which about 7,700 (2.3%) were called active. The inconclusive results got no clear call from the source; some entries with a clear call stand among them for comparison. The call rests on the fitted dose curve; in most records, active means well fitted inhibition curve with a large enough effect; inconclusive means small, poorly fitted or top-dose-only effect, or effect the other way; inactive means flat fitted curve, though single readings scatter. Where the call is inconclusive, the potency comes from a doubtful curve fit.
# Assay: qHTS screen for small molecules that inhibit ELG1-dependent DNA repair in human embryonic kidney (HEK293T) cells expressing luciferase-tagged ELG1; further: nearly all actives have a fitted effect of over 55% in size
# Conditions: HEK293T ELG1-luciferase reporter, luminescence, 16 h, DNA damage induced by 5-fluorouridine; activity change, negative = inhibition: at 46.1 µM (top of the series)
# Summary of the method: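 Quantitative HTS, concentration-response format. 2,000 cells/well co-treated with 5-fluorouridine and compound, 16 hr in 5% CO2 at 37 °C; ONE-Glo luminescence read after 30 min.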
# On the % scale 0 is the no-effect control and ±100 the full control effect; potency means the concentration at half of the fitted maximal effect.
Compound,Potency,"activity change, negative = inhibition"
CCOc1ccc2[nH]c3c(N4CCN(c5ccccn5)CC4)ncnc3c2c1,active: 16.4 µM,
CCCc1cc(C(=O)N2CCN(S(=O)(=O)c3ccc(OC)c(OC)c3)CC2)cs1,"inconclusive: 8.2 µM [inhibitor, single point]",
c1ccc(-c2nnc(SCc3nc4ccccc4[nH]3)n2Cc2ccco2)nc1,"inconclusive: 16.4 µM [inhibitor, partial curve, poor fit]",
O=[N+]([O-])c1ccc(S(=O)(=O)NCCc2cn3ccccc3n2)cc1,,inactive: -3.51%
CCN(CC)C(=O)c1cc2c(=O)n3ccccc3nc2s1,"inconclusive: 18.4 µM [activator, partial curve]",
COC(=O)Cc1ccc(OCc2ccc(Cl)nc2)cc1,"inconclusive: 8.2 µM [activator, partial curve]",
CC(=O)c1ccc(N2CCN(C3CCC(C(C)(C)C)CC3)CC2)cc1 (stereo not drawn),,inactive: -8.15%
O=C(COC(=O)/C=C/c1ccc(Cl)cc1)Nc1cccc(S(=O)(=O)NC2=NCCCCC2)c1,,inactive: 8.53%
COc1ccc(OC)c(Nc2cc(C)nc3ccccc23)c1,active: 20.6 µM,
COc1ccc(-c2nnc(SCC(=O)Nc3ccc(C)cc3)n2C)cc1,,inactive: -18.9%
COC(=O)c1sccc1NC(=O)CC1C(=O)NCCN1C(=O)Nc1ccc(C(F)(F)F)cc1 (stereo not drawn),"inconclusive: 18.3 µM [inhibitor, partial curve]",
COc1ccc(OC)c2c1sc(=NC(=O)C1COc3ccccc3O1)n2C (stereo not drawn),"inconclusive: 5.8 µM [activator, full curve]",
Cc1ccc2nc(SCC(=O)NCc3ccccc3)nc(=O)n2c1,"inconclusive: 29.1 µM [activator, single point]",
Cc1cn(-c2ccccc2)c(C)c1/C=N\Nc1nc(N2CCOCC2)nc(N2CCOCC2)n1,active: 8.2 µM,
O=C(COC(=O)C12CC3CC(CC(C3)C1)C2)NNC(=O)c1ccccc1,,inactive: 6.32%
COc1cc(/C=N/NC(=O)c2ccoc2C)ccc1O,"inconclusive: 16.4 µM [activator, partial curve]",
CCCC(C(=O)Nc1ccc(S(=O)(=O)N2CCCC2)cc1)c1ccccc1 (stereo not drawn),"inconclusive: 6.51 µM [inhibitor, partial curve, poor fit]",
COc1cccc(-c2csc3nc[nH]c(=O)c23)c1,"inconclusive: 16.4 µM [inhibitor, single point]",
COCCNC(=O)c1cc(-c2ccccc2C)nn1CC1CC(c2cccnc2)=NO1 (stereo not drawn),"inconclusive: 14.6 µM [inhibitor, partial curve]",
COc1ccccc1NC(=O)CC1S/C(=N/N=C(\C)C2CCCCC2)NC1=O (stereo not drawn),"inconclusive: 29.1 µM [inhibitor, partial curve]",
COc1ccc(NC2CCCN(C(=O)c3ccc4[nH]c(C)c(C)c4c3)C2)cc1OC (stereo not drawn),"inconclusive: 29.1 µM [inhibitor, single point]",
Cc1cc(C(=O)Nc2ccc3ccccc3c2)c(C)o1,"inconclusive: 2.59 µM [activator, full curve]",

Compound,Potency,"activity change, negative = inhibition"
CCOC(=O)C(=O)Nc1ncc(Cl)s1,,inactive: -0.0039%
CCN(CC)CCNC(=O)c1ccc(Sc2ccc(C)cc2)c(NC(C)=O)c1,,inactive: 2.44%
CCOC(=O)N1CCN(C(=O)C(NC(=O)c2ccc(CC)cc2)C(C)C)CC1 (stereo not drawn),"inconclusive: 18.4 µM [inhibitor, partial curve, poor fit]",
CC1CC1C(=O)OCC(=O)N(C)CC(=O)Nc1ccc(F)cc1 (stereo not drawn),,inactive: 0%
CCN(Cc1ccncc1)Cc1nc(Cc2ccccc2Cl)no1,"inconclusive: 18.3 µM [inhibitor, single point]",
CC1Nc2ccccc2C(=O)N1NC(=O)c1ccc(Br)cc1 (stereo not drawn),"inconclusive: 18.3 µM [activator, partial curve, poor fit]",
CSc1nc2c(c(=O)[nH]1)C(c1ccncc1)C(C(=O)OC(C)C)=C(C)N2 (stereo not drawn),"inconclusive: 25.9 µM [activator, single point]",
O=C(Nc1ccccc1)C1=C[C@@H](c2coc3ccccc3c2=O)C[C@@H](OCCCCO)O1,,inactive: -2.07%
COc1ccc(NC2=Nc3cccc4cccc2c34)cc1,"inconclusive: 18.4 µM [activator, partial curve, poor fit]",
CC(C(=O)NC1CCCC1)N(C(=O)c1ccc(-c2ccccc2)[nH]1)c1ccccc1F (stereo not drawn),"inconclusive: 3.16 µM [inhibitor, partial curve, poor fit]",
Cc1ccc(-c2cc(C(=O)NC3=NCCS3)c3ccccc3n2)cc1C,"inconclusive: 6.51 µM [activator, single point]",
O=C(NC(c1ccc(Cl)cc1)c1cc(Cl)c2cccnc2c1O)c1cccnc1 (stereo not drawn),"inconclusive: 29.1 µM [activator, single point]",
O=[N+]([O-])c1ccccc1S(=O)(=O)N1CCN(S(=O)(=O)c2ccc3c(c2)OCCO3)CC1,"inconclusive: 1.3 µM [inhibitor, partial curve, poor fit]",
COc1cccc(Oc2nc3ncn(Cc4ccccc4)c3c(=O)n2C)c1,,inactive: 0.519%
N#Cc1c(NC(=O)c2ccc(-c3ccccc3[N+](=O)[O-])o2)sc2c1CCCC2,"inconclusive: 29.1 µM [inhibitor, single point]",
Cc1ccc(COc2coc(CO)cc2=O)cc1,"inconclusive: 20.6 µM [activator, partial curve]",
COc1cc(OC)cc(C(=O)NCC(=O)OCc2nc3ccccc3s2)c1,"inconclusive: 13 µM [activator, partial curve]",
COc1cc(CNc2ncn[nH]2)ccc1OCc1cccc(C)c1,"inconclusive: 20.6 µM [activator, partial curve]",
Nn1c(Cc2ccccc2F)n[nH]c1=S,"inconclusive: 8.2 µM [inhibitor, partial curve, poor fit]",
CCc1nnc(NC(=O)c2oc3ccc(Br)cc3c2C)s1,"inconclusive: 11.6 µM [activator, partial curve]",
CCc1nc2c(sc3nc4c(cc32)COC(C)(C)C4)c(=O)n1Cc1ccco1,"inconclusive: 8.2 µM [inhibitor, single point]",

# Individual results from above:
# Under Potency, COc1ccc(OC)c2c1sc(=NC(=O)C1COc3ccccc3O1)n2C (stereo not drawn) has the entry inconclusive: 5.8 µM [activator, full curve]
# Under Potency, CCN(Cc1ccncc1)Cc1nc(Cc2ccccc2Cl)no1 has the entry inconclusive: 18.3 µM [inhibitor, single point]
